Results: paper PMC5596575
No constants are given. Whether binding was seen depends on the method and setting. Binding seen in cells or lysates may run through a third protein. Some binding calls cover weakened binding; strength is not graded here.

By UniProt entry, the sequences of proteins in these tests, tags left out. Residues count along the entry.
UniProt P22366: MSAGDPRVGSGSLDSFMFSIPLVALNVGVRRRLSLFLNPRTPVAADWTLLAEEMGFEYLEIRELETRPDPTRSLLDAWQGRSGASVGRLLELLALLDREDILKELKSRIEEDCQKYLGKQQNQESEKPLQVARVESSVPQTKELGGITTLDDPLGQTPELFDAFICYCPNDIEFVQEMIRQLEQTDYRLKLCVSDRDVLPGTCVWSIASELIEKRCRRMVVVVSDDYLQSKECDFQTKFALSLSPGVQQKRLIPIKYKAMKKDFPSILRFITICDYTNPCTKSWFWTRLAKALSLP
UniProt Q9QUK6, residues 26-835: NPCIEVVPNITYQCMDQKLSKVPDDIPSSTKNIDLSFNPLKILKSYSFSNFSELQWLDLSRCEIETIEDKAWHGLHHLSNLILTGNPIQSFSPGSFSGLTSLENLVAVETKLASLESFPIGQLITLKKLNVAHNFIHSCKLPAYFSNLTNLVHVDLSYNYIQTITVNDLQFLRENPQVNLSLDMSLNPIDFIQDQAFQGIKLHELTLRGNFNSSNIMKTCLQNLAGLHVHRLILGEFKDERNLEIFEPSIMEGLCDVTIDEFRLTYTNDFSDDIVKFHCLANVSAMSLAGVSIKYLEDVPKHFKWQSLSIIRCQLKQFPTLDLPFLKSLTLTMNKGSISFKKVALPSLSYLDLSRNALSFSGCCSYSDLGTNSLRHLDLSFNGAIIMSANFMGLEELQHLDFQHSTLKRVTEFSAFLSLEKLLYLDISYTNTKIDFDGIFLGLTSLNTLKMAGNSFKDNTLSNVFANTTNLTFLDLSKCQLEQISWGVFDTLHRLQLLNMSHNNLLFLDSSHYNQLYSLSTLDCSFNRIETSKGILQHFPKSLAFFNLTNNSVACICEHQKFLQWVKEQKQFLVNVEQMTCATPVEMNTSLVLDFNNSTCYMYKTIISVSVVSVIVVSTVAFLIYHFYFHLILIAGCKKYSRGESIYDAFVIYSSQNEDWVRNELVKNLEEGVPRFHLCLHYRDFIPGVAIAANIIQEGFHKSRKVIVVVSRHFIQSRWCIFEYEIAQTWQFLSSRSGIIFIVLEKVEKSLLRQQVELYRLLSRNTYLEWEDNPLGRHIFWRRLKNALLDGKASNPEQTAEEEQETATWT

Target: MyD88, endogenous in RAW264.7 cells (mouse (endogenous in RAW264.7)) (UniProt P22366)
Experiment: co-IP; RAW264.7 cells, endogenous proteins; with or without TTN (4 μg/ml, 1 h) before LPS (1 μg/ml, 2 h); 800 μg protein in IP lysis buffer precipitated with MyD88 antibody on magnetic beads; blots with anti-MyD88 and anti-TLR4

binding: binds
Substance: Toll-like receptor 4 (TLR4), endogenous in RAW264.7 cells (from UniProt Q9QUK6 26-835)
